Measured values published in paper PMC12561408, “AI‐Driven De Novo Design of Ultra Long‐Acting GLP‐1 Receptor Agonists” (Advanced Science, 2025).

Conditions: rat, in vivo, 0.05 mg/kg
Procedure: B) half‐life (T1/2). C) the maximum plasma concentration (Cmax). […] F) time to Maximum Concentration (Tmax). […] Data were analyzed with the two‐sided Student's unpaired t test. ^* p < 0.05, ^** p < 0.01, ^*** p < 0.001.
Plasma samples were analyzed using LC‐MS/MS (Waters XEVO TQ‐XS), and pharmacokinetic parameters such as T1/2, Cmax, Tmax, AUC0‐t, and MRT0‐t were calculated using WinNonlin. The sample preparation and detailed information of LC‐MS/MS are shown in Table S5 (Supporting Information).

For `CC[C@H](C)[C@H](NC(=O)[C@H](Cc1ccccc1)NC(=O)[C@H](CCC(=O)O)NC(=O)[C@H](CCCCNC(=O)COCCOCCNC(=O)COCCOCCNC(=O)CC[C@H](NC(=O)CCCCCCCCCCCCCCCCC(=O)O)C(=O)O)NC(=O)[C@H](C)NC(=O)[C@H](C)NC(=O)[C@H](CCC(N)=O)NC(=O)CNC(=O)[C@H](CCC(=O)O)NC(=O)[C@H](CC(C)C)NC(=O)[C@H](Cc1ccc(O)cc1)NC(=O)[C@H](CO)NC(=O)[C@H](CO)NC(=O)[C@@H](NC(=O)[C@H](CC(=O)O)NC(=O)[C@H](CO)NC(=O)[C@@H](NC(=O)[C@H](Cc1ccccc1)NC(=O)[C@@H](NC(=O)CNC(=O)[C@H](CCC(=O)O)NC(=O)C(C)(C)NC(=O)[C@@H](N)Cc1cnc[nH]1)[C@@H](C)O)[C@@H](C)O)C(C)C)C(=O)N[C@@H](C)C(=O)N[C@@H](Cc1c[nH]c2ccccc12)C(=O)N[C@@H](CC(C)C)C(=O)N[C@H](C(=O)N[C@@H](CCCNC(=N)N)C(=O)NCC(=O)N[C@@H](CCCNC(=N)N)C(=O)NCC(=O)O)C(C)C` [Semaglutide], the “MRT0-t (0–168 h)” value was 14.21 h.
